Laboratory results reported in the supplement of paper PMC12578635.
Some of the results follow. No stated cut-off is given here; in the data, active = 150% or more and inactive = the rest. Many values rest on one well or one pass, so single values are uncertain.

These molecules were tested on Staphylococcus aureus JE2-lux inside RAW 264.7 macrophages (assay: intracellular bacterial bioluminescence relative to DMSO vehicle; higher = higher intracellular bacterial metabolic activity). Conditions: 10 µM; treatment time 4 h; gentamicin 50 µg/ml.
Protocol: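 RAW 264.7 macrophages infected with bioluminescent MRSA JE2-lux (MOI 100) were dispensed into 384-well plates with 10 µM compound in the presence of 50 µg/ml gentamicin. After 4 h at 37 °C, bacterial bioluminescence (a proxy for intracellular bacterial metabolic activity) and host cell viability (CellTiter-Fluor) were read and normalised to 0.1% DMSO vehicle controls. Single-pass screen of the UNC CICBDD kinase-targeted library (>4,700 compounds).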

Intracellular bacterial bioluminescence, active:
Cc1cc(SCC(=O)NC2CCCCC2)nc(=O)[nH]1 151%

Intracellular bacterial bioluminescence, inactive:
Cc1nc(Cl)c2c(C)c(C)n(-c3ccccc3)c2n1 109%
CC(C)c1ccc2nc(SCC(=O)NCCc3c[nH]c4ccccc34)c(C#N)cc2c1 114%
COc1ccc(-c2ccc(=O)n(C[C@H](C)NC(=O)c3cnn4cccnc34)n2)cc1 111%
Cc1nc2cc(NC(=O)c3ccc(S(=O)(=O)N4CCC(C)CC4)cc3)ccc2s1 108%
Fc1ccc2ncc3c(-c4ccccc4)n[nH]c3c2c1 95.1%
CCc1ccc(NC(=O)CSc2nc(-c3ccc(C(C)C)cc3)no2)cc1 66.2%
Cc1c(NS(=O)(=O)c2ccc(Cl)cc2)c(-n2cnnc2)nn1C 97.1%
COc1ccccc1NC(=O)CSc1nnc2cc(C)c3ccccc3n12 83.8%
N#Cc1cc2cc3c(cc2nc1NCCNS(=O)(=O)c1ccccc1)OCO3 91.3%
COc1ccc(Cl)cc1NC(=O)c1cccn(OCc2ccccc2F)c1=O 24.7%
CNc1nnc(CSc2nc(C)cc(C)n2)s1 78.8%
O=C(CCn1c(=O)oc2ccccc21)NCCC1=CCCCC1 87.2%
N#CC1=C(N)Oc2c(oc(CO)cc2=O)C1c1ccc(C(F)(F)F)cc1 (configuration not stated) 114%
Cc1cc(C)c2cc(C#N)c(N3CCCN(C(=O)c4ccc(F)cc4F)CC3)nc2c1 99.5%
COc1ccccc1C(=O)Nc1ncc(S(=O)(=O)c2ccc([N+](=O)[O-])cc2)s1 54.1%
CCC(=O)Nc1c(-c2ccccc2)c2cc(Br)ccc2[nH]c1=O 96.4%
Cc1ccc(S(=O)(=O)NC(=N)NCCc2c(C)[nH]c3ccc(C)cc23)cc1 116%
Cc1ccc(Nc2c(C(=O)NCc3ccco3)cnc3c2c(C)nn3C)cc1 49.5%
C=CCOc1ccc(C2CC(=O)Nc3c2cnn3-c2nc3ccccc3s2)cc1OCC (configuration not stated) 65.9%
Cc1nc2c(c(=O)n1CC(=O)Nc1ccc(F)cc1)CCN(Cc1ccccc1)C2 29.1%
O=C(Nc1sc2c(c1C(=O)NCC1CCCO1)CCCC2)c1cc(-c2cccs2)on1 (configuration not stated) 106%
O=C1Nc2ccccc2/C1=C1/SC(=S)N(c2ccccc2F)C1=O 102%
COc1ccc(C(=O)Nc2nc3ccc(S(=O)(=O)N4CCCC4)cc3s2)c(OC)c1 91.4%
Cn1c(=O)c2c(nc(CN3CCOCC3)n2CC(=O)C(C)(C)C)n(C)c1=O 96.3%
COc1ccc(C(NC(=O)c2cc(-c3ccccn3)n[nH]2)c2ccncc2)cc1 (configuration not stated) 111%
CC(C(=O)c1ccc(Cl)cc1)C1(O)C(=O)Nc2ccccc21 (configuration not stated) 80.1%
O=C(CSc1ncnc2ccccc12)NC1CCCCC1 80.7%
O=C(Cn1nc(-c2ccoc2)oc1=O)NC1CCCCC1 107%
COC(=O)N1CCc2c(sc(NC(=O)c3cccc(N4C(=O)CCC4=O)c3)c2C(N)=O)C1 126%
COc1ccc(/C=C/C(=O)Nc2ccc(S(=O)(=O)N3CCc4ccccc43)cc2)cc1 122%
Nc1ccc(-c2ccc(N)c([N+](=O)[O-])c2)cc1[N+](=O)[O-] 79.5%
COc1ccc(-n2nnc3c(N4CCN(C(=O)C(=O)c5c[nH]c6ccccc56)CC4)ncnc32)cc1 36.4%
COc1ccccc1NC(=O)Nc1nc(-c2cccnc2)nc2ccccc12 119%
Cc1nc(-n2nc(C)c(Cc3ccccc3)c2O)sc1C(=O)NC(C)C 110%
COC(=O)c1c(-c2cccc(F)c2)noc1NCc1ccc(F)cc1 81.1%
COc1cccc(-n2nnc3c(N4CCN(C(=O)COc5ccc(Cl)cc5)CC4)ncnc32)c1 60.7%
CC(C)c1ccc(C2C(C#N)=C(SCC(N)=O)NC3=C2C(=O)CCC3)cc1 (configuration not stated) 84.6%
Cc1n[nH]c2c1C(c1ccc(-c3cccc([N+](=O)[O-])c3)o1)C(C#N)=C(N)O2 (configuration not stated) 106%
Cc1ccc(OCC(=O)N/N=C2/C(=O)Nc3c(Br)cc(Br)cc32)cc1 129%
COc1ccc(-c2nnc(-c3ccccc3)o2)cc1S(=O)(=O)N1CCc2ccccc2C1 77.5%
Cc1cccc(Cl)c1NC(=O)CCc1nc(CSc2nc3ccccc3o2)no1 76.3%
Cc1cc2c(=O)n(CC(=O)Nc3ccc(F)c(Cl)c3)cnc2s1 18.2%
Cc1cccc(NC(=O)Cn2c(=O)c3cnc(-c4ccccc4)nc3n(C)c2=O)n1 91.2%
C#CCn1/c(=N/C(=O)c2ccc(Cl)s2)sc2cc(NC(C)=O)ccc21 60.3%
O=C(CSc1nc2c(oc3ccccc32)c(=O)n1Cc1cccs1)NCc1ccc(F)cc1 115%
O=C(NCC1COC2(CCCCC2)O1)C(=O)Nc1ccccc1[N+](=O)[O-] (configuration not stated) 95.6%
Clc1ccc2nc(N3CCc4ccccc4C3)sc2c1 111%
O=C(CSc1nc2ccc(Br)cc2c2nc3ccccc3n12)Nc1nccs1 109%
COc1cc(OC)c(OC)cc1/C=N\NC(=O)CCC1C(=O)NN=C1C (configuration not stated) 110%
Cc1ccc(NC(=O)CSc2nc3cc4c(cc3cc2C#N)OCO4)c(C)c1 78.4%
Cc1[nH]c2ccccc2c1C(=O)CSc1ncnc2sc3c(c12)CCC3 116%
CCOC(=O)c1ccccc1NC(=O)CSc1ncnc2c1cnn2-c1ccc(F)cc1 118%
O=C(Cn1cccc1-c1nc(-c2ccc(Cl)cc2)cs1)N1CCc2ccccc21 111%
C=CCc1cccc2cc(C(=O)NNC(=O)c3ccc(C)cc3)c(=O)oc12 118%
O=C(Nc1nc2ccc([N+](=O)[O-])cc2s1)c1cccc(NS(=O)(=O)c2ccc(Cl)cc2)c1 98.2%
O=C(Nc1ccc(F)cc1)/C(O)=C1\C(=O)Nc2ccc([N+](=O)[O-])cc21 106%

Random excerpt: 4 entries already listed.
Intracellular bacterial bioluminescence, inactive:
O=C(Cn1nc(-c2ccoc2)oc1=O)NC1CCCCC1 107%
Cc1nc2c(c(=O)n1CC(=O)Nc1ccc(F)cc1)CCN(Cc1ccccc1)C2 29.1%
Cc1nc(Cl)c2c(C)c(C)n(-c3ccccc3)c2n1 109%
Cc1ccc(S(=O)(=O)NC(=N)NCCc2c(C)[nH]c3ccc(C)cc23)cc1 116%
